PubChem BioAssay AID504774 – Drosophila RNAi Screening Center, 2011
Screen: 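Genes required for cells to withstand methyl methanesulphonate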 (primary screen). Cells: Drosophila Kc167 cells. Reagent: long dsRNA against Drosophila genes, about 0.25 µg dsRNA per well. Timing: about 6 days: 3 days knock-down, then 3 days with or without MMS. Conditions: methyl methanesulphonate 0.004% (w/v) for 3 days after knock-down. Measurement: 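Viability in wells given MMS, read as ATP luminescence, normalised by quantiles plate by plate and averaged across replicates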. Direction: mean viability with MMS and viability with MMS: higher = more surviving cells after MMS.
In all, the deposit lists about 23,000 reagents; shown is an unselected part of those with a known target gene and a result. 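Values are quantile-normalised luminescence on an arbitrary scale; higher means more cells surviving MMS.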 Names joined by + are all predicted targets of the reagent. No sequences are given here.

Target gene | DRSC id | mean viability with MMS | viability with MMS, replicate 1 | viability with MMS, replicate 2
CG42512 + CG32573 | DRSC19532 | 3.57e6 | 4.05e6 | 4.04e6
CG42512 + CG32573 | DRSC19906 | 3.77e6 | 4.36e6 | 4.23e6
CG42512 + CG32573 | DRSC22782 | 3.36e6 | 3.88e6 | 3.89e6
mRpS26 | DRSC10823 | 3.60e6 | 4.10e6 | 4.07e6
pdm3 | DRSC06076 | 3.67e6 | 4.03e6 | 4.19e6
pdm3 | DRSC06490 | 3.58e6 | 4.01e6 | 4.08e6
pdm3 | DRSC22326 | 2.94e6 | 3.77e6 | 3.78e6
pdm3 | DRSC23181 | 3.60e6 | 4.05e6 | 4.13e6
lbl | DRSC16986 | 3.73e6 | 4.16e6 | 4.32e6
Blm + CG14721 | DRSC14943 | 3.44e6 | 3.90e6 | 3.94e6
ND-B16.6 | DRSC18306 | 3.73e6 | 4.14e6 | 4.33e6
ND-B16.6 | DRSC22600 | 3.74e6 | 4.19e6 | 4.17e6
CG32473 | DRSC14352 | 3.53e6 | 3.93e6 | 4.09e6
CG32473 | DRSC16446 | 3.42e6 | 3.90e6 | 3.82e6
Son | DRSC16400 | 3.70e6 | 4.14e6 | 4.12e6
CG12661 | DRSC17864 | 3.48e6 | 3.76e6 | 4.13e6
Stam | DRSC03444 | 3.39e6 | 3.67e6 | 3.95e6
CG11816 | DRSC19428 | 3.19e6 | 3.72e6 | 3.77e6
hd | DRSC12316 | 3.49e6 | 3.99e6 | 3.95e6
gudu | DRSC02820 | 3.73e6 | 4.09e6 | 4.26e6
CG34462 | DRSC10768 | 3.59e6 | 4.23e6 | 3.93e6
CG11523 | DRSC11669 | 3.72e6 | 4.24e6 | 4.13e6
CG3014 | DRSC15458 | 3.57e6 | 4.09e6 | 4.01e6
CG13077 | DRSC02181 | 3.53e6 | 3.98e6 | 4.02e6
Rbf2 | DRSC16816 | 3.57e6 | 4.01e6 | 4.10e6
danr | DRSC14651 | 3.51e6 | 4.00e6 | 3.93e6
muskelin | DRSC07273 | 3.48e6 | 3.91e6 | 3.93e6
CG6126 | DRSC15971 | 3.53e6 | 3.92e6 | 4.09e6
Nup188 | DRSC21830 | 3.19e6 | 3.73e6 | 3.75e6
CG40191 | DRSC21041 | 3.45e6 | 3.88e6 | 3.94e6
CR32028 (retired record) | DRSC22959 | 3.57e6 | 4.04e6 | 4.02e6
ebo | DRSC18787 | 3.52e6 | 3.95e6 | 4.04e6
CG14540 | DRSC14884 | 3.49e6 | 3.92e6 | 3.96e6
Acbp2 | DRSC11141 | 3.62e6 | 3.88e6 | 4.34e6
CG11475 | DRSC04113 | 3.61e6 | 4.28e6 | 3.84e6
PolD3 | DRSC01961 | 3.66e6 | 4.07e6 | 4.30e6
Fbxl7 | DRSC15553 | 3.67e6 | 4.20e6 | 4.15e6
pit | DRSC17025 | 3.37e6 | 3.78e6 | 3.90e6
pit | DRSC22798 | 3.69e6 | 4.33e6 | 3.99e6
Gr58b | DRSC04140 | 3.53e6 | 4.03e6 | 3.97e6
uex | DRSC20784 | 2.38e6 | 4.00e6 | 4.01e6
uex | DRSC20786 | 2.33e6 | 3.97e6 | 3.81e6
Inx5 | DRSC20051 | 3.63e6 | 4.16e6 | 4.02e6
Ogdh | DRSC09854 | 3.77e6 | 4.29e6 | 4.14e6
Ogdh | DRSC09855 | 3.54e6 | 3.98e6 | 4.05e6
Nup358 | DRSC14410 | 3.30e6 | 3.74e6 | 3.77e6
pnt | DRSC17028 | 3.07e6 | 3.64e6 | 3.62e6
pnt | DRSC23204 | 3.11e6 | 3.39e6 | 3.51e6
CG34353 | DRSC14493 | 3.60e6 | 3.93e6 | 4.23e6
CG34353 | DRSC14517 | 3.74e6 | 4.23e6 | 4.21e6
CG34353 | DRSC14563 | 3.59e6 | 4.00e6 | 4.13e6
CG34353 | DRSC15837 | 3.69e6 | 4.22e6 | 4.12e6
CG34353 | DRSC22429 | 3.54e6 | 4.02e6 | 4.00e6
VGAT | DRSC07160 | 3.40e6 | 3.90e6 | 3.86e6
Cyp9f2 | DRSC16635 | 3.71e6 | 4.28e6 | 4.15e6
Agxt | DRSC18718 | 3.67e6 | 4.28e6 | 3.92e6
CG11686 | DRSC14350 | 3.66e6 | 4.20e6 | 4.12e6
Spag1 | DRSC15331 | 3.60e6 | 4.10e6 | 4.07e6
FucTC | DRSC20966 | 2.56e6 | 4.25e6 | 4.12e6
LBR | DRSC04298 | 2.70e6 | 3.42e6 | 2.34e6
NimC4 | DRSC01945 | 3.60e6 | 4.15e6 | 4.00e6
BORCS6 | DRSC08514 | 3.61e6 | 4.08e6 | 4.07e6
Art7 | DRSC04588 | 3.59e6 | 4.01e6 | 4.14e6
CG5421 | DRSC02858 | 3.65e6 | 4.15e6 | 4.09e6
CG17477 | DRSC15239 | 3.57e6 | 4.13e6 | 3.98e6
LanB1 | DRSC03360 | 3.72e6 | 4.18e6 | 4.28e6
Mocs2A + Mocs2B | DRSC13697 | 1.69e6 | 3.90e6 | 3.79e6
Mocs2A + Mocs2B | DRSC14219 | 3.72e6 | 4.17e6 | 4.23e6

8 entries from above, sorted by “viability with MMS, replicate 2”, ascending:
Target gene | DRSC id | mean viability with MMS | viability with MMS, replicate 1 | viability with MMS, replicate 2
LBR | DRSC04298 | 2.70e6 | 3.42e6 | 2.34e6
NimC4 | DRSC01945 | 3.60e6 | 4.15e6 | 4.00e6
Spag1 | DRSC15331 | 3.60e6 | 4.10e6 | 4.07e6
BORCS6 | DRSC08514 | 3.61e6 | 4.08e6 | 4.07e6
CG5421 | DRSC02858 | 3.65e6 | 4.15e6 | 4.09e6
CG11686 | DRSC14350 | 3.66e6 | 4.20e6 | 4.12e6
FucTC | DRSC20966 | 2.56e6 | 4.25e6 | 4.12e6
Art7 | DRSC04588 | 3.59e6 | 4.01e6 | 4.14e6
